Results as given in paper PMC6112376, “Comprehensive Analyses and Prioritization of Tox21 10K Chemicals Affecting Mitochondrial Function by in-Depth Mechanistic Studies” (Environmental Health Perspectives, 2018).

Columns and labels:
rat primary hepatocytes [1] = assay: MMP assay in rat primary hepatocytes; conditions: Hepatocyte, read-out: MMP assays IC50 (µM), Rat Hepatocytes
rat primary hepatocytes [2] = system: rat primary hepatocytes

Cc1cc(/C=C/c2ccc3cc(N(C)C)ccc3[n+]2C)c(C)n1-c1ccccc1 [Pyrvinium pamoate]
IC50 (rat primary hepatocytes [1]): 1.03 ± 0.26 µM | MMP assays efficacy (%), Rat Hepatocytes (rat primary hepatocytes [2]): -87±54%
